From PMC11094088, “Molecular mechanism of Oxr1p mediated disassembly of yeast V-ATPase” (EMBO Reports, 2024)
Results are given in words; binding and its absence hold for the method and conditions named. For some of these results: Binding calls can cover weak binding; strength is not graded here. For some of these results: Where a sequence is shown, tags or fusion partners need not be part of it. For some of these results: In cells and extracts the contact can be indirect.

B1: Oxidation Resistance protein 1 (Oxr1p), recombinant (natural protein, yeast, UniProt Q08952 1-273, looked up)
chain: MFGVKDAIFKIKRSIAGTDSSDSTAYTTASESSPQLKDSHNPFRNKTTSERTIVEEGSLPPVRLNGYLPSTKNKLLTPEMCDEIRTLMPTRIQLYTEWNLLYSLEQHGSSLHSLYSNVAPDSKEFRRVGYVLVIKDRKNGIFGAYSNEAFHPNEHRQYTGNGECFLWKLDKVPDVNISEKEESEQEGKEGKEEGDKEERWRFSGYPYTGVNEFAIYCTSEFLSMGAGDGHYGLLCDDGLLHGVSNPCQTYGNEVLSKEGKKFSIVALEVWRVG
notes: Oxr1p, yeast TLDc domain protein; construct as described in Khan et al, 2022; also called recombinant Oxr1p; source: E. coli BL21DE3, purified (Ni-NTA, Superdex-75 SEC); not shown: 7xHis, N-terminal, kept

Legend:
[1] = target: T1, recombinant N-terminally 7×His tagged biotinylated Oxr1p (bio-Oxr1p) (yeast) (UniProt Q08952); test: pull-down; recombinant bio-Oxr1p as bait, ~10 µg purified V1 subcomplex with or without twofold molar excess of subunit C, 30 min at room temperature, streptavidin beads, SDS-PAGE (Coomassie); both purified
T1 sequence (chain, biotin on the Avi tag (incomplete biotinylation)): B1 chain

[2] = target: wild-type yeast V-ATPase reconstituted into lipid nanodiscs (V1VoND) (yeast (endogenous) | yeast); test: cryo-EM structure; V-ATPase in lipid nanodiscs (~1-2 mg/ml) vitrified with a twofold molar excess of Oxr1p, no nucleotide; 3-D classes at ~8.2 Å; Oxr1p density in the rotary state 1 class (~31% of particles); both purified
[3] = target: V1 of wild-type V-ATPase with N-terminally FLAG-tagged subunit G (FLAG-Vma10p) (yeast (endogenous) | yeast); test: pull-down; reverse pull-down as a7, in the presence of ATP; only the binder purified
[4] = target: V1 of wild-type V-ATPase with N-terminally FLAG-tagged subunit G (FLAG-Vma10p) (yeast (endogenous) | yeast); test: pull-down; reverse pull-down: vacuoles of the strain expressing FLAG-tagged G mixed with recombinant Oxr1p, disassembled V1 pulled down via anti-FLAG M2 affinity gel, without ATP; western blot; only the binder purified

Molecule	binding [1]	binding [2]	binding [3]	binding [4]
V1ΔH^(ΔOxr1) in the presence of recombinant subunit C (yeast (endogenous) | yeast) (complex)	binds			
B1		binds	no binding (only with ATP)	binds
